The values below are quoted from earlier work in patent EP0102564A2, “Method for the removal of toxins bound to protein or lipid from blood or blood fractions, and use of certain compounds as liberating agents” (FRAUNHOFER-GESELLSCHAFT ZUR FÖRDERUNG DER ANGEWANDTEN …, priority 1982, dated 1984).

The data set relates to Plasmaproteine. The note with it: plasma; cited from earlier work.

Turning to `CN1C(=O)CN=C(c2ccccc2)c2cc(Cl)ccc21` [Diazepam], the “Bindung von Pharmaka an Plasmaproteine” value was 96%.
